For at least one compound, name, drawing or mass did not settle the structure.
How the values were obtained:
adrenalin = experiment: Antiadrenalin activity in vitro (a); details: adrenolytic
Text: (a) J. Brugger, Helv. Physiol. Pharm. Acta 3, 117,
(c) G. Arcari & coll., Brit. J. Pharmacol. 34, 700,

BaCl2 = experiment: Anti BaCl2 activity (spasmolytic) (e)
Text: (e) Magnus Pflugers Arch. ges. Physiol., 102, 123,

## CSc1[nH]c2cccc3c2c1C[C@@H]1[C@@H]3C[C@@H](COC(=O)N2CCCCCC2)CN1C [Compound 10, D-6-methyl-2-methylthio-8beta(perhydroazepinylcarbonyloxymethyl)ergoline]
adrenalin
  Antiadrenalin activity in vitro EC50: 0.0037 mg/L
BaCl2
  Anti BaCl2 activity EC50: 2 mg/L
